Reference: paper PMC10087552, “Non‐canonical binding of the Chaetomium thermophilum PolD4 N‐terminal PIP motif to PCNA involves Q‐pocket and compact 2‐fork plug interactions but no 3_10 helix” (The Febs Journal, 2022)

Molecular target: Chaetomium thermophilum PCNA (proliferating cell nuclear antigen) (Chaetomium thermophilum)
Assay: crystal structure; co-crystallisation of Ct PCNA with the peptide; 0.2 M calcium acetate, 0.1 M sodium cacodylate pH 6.5, 36% PEG 300; 2.45 Å, space group P1, two trimers in the asymmetric unit; both purified

B1: Ct PolD4 PIP peptide (residues 21-35 of Chaetomium thermophilum PolD4) (peptide)
peptide: KHQSTLNFKHRVTKP
- binding: binds

These are yes or no findings as the source states them, for the method shown. A result given as binding can be weak or reduced; the word gives no strength.
